No constants are given. Whether binding was seen depends on the method and setting. Binding seen in cells or lysates may run through a third protein. Some binding calls cover weakened binding; strength is not graded here. For some of these results: Sequences can lack the tags named with a protein. One block for each substance: values may come before it.
Tests used:
[1] = biological target: T1, GFP-ULK1 (Unc-51-like kinase 1, full-length) (human) (UniProt O75385); assay: co-IP; GFP-IP with GFP-Trap_A beads from S100 cytoplasm extracts (Flp-In T-REx 293 induced with doxycycline, with or without 1 h EBSS starvation; HEK293T stably or transiently transfected), 4°C, at least 1.5 h, western blotting
T1 sequence: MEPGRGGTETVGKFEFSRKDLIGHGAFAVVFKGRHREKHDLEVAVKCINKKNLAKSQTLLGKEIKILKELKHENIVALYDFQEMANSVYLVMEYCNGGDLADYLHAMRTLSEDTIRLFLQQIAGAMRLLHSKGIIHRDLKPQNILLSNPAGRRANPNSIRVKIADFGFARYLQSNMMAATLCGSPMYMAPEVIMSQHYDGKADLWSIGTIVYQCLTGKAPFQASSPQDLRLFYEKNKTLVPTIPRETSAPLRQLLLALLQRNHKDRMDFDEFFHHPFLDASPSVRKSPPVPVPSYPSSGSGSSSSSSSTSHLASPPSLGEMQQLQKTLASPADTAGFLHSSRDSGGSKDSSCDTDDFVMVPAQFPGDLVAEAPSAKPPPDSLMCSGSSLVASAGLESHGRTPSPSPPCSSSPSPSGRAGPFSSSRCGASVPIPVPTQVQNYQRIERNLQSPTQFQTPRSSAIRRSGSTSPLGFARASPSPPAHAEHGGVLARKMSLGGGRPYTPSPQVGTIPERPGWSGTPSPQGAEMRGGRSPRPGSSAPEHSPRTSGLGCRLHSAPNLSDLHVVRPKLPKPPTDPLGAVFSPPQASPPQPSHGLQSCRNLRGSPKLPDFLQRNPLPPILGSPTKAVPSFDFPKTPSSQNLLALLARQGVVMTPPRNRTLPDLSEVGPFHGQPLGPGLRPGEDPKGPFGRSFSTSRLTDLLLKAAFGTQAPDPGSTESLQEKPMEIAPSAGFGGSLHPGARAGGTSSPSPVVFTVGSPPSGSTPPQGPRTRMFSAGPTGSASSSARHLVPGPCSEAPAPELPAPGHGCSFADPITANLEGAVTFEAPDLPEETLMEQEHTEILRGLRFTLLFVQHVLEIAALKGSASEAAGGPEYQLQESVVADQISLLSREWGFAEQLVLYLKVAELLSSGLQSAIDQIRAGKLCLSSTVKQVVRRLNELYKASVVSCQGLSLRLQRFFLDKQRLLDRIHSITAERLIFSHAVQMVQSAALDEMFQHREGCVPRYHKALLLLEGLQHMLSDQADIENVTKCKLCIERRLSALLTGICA

Protein sequences, listed by entry. Tags and fused reporters are not part of them.
UniProt Q16637: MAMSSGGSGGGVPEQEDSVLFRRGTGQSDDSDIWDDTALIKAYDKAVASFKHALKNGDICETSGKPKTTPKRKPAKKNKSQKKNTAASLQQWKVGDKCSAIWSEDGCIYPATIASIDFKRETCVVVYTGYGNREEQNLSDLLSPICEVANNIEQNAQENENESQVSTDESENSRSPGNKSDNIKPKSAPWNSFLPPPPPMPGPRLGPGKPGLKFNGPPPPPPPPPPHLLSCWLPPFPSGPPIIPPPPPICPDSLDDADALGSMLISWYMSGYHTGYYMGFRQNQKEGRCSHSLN
UniProt O14744: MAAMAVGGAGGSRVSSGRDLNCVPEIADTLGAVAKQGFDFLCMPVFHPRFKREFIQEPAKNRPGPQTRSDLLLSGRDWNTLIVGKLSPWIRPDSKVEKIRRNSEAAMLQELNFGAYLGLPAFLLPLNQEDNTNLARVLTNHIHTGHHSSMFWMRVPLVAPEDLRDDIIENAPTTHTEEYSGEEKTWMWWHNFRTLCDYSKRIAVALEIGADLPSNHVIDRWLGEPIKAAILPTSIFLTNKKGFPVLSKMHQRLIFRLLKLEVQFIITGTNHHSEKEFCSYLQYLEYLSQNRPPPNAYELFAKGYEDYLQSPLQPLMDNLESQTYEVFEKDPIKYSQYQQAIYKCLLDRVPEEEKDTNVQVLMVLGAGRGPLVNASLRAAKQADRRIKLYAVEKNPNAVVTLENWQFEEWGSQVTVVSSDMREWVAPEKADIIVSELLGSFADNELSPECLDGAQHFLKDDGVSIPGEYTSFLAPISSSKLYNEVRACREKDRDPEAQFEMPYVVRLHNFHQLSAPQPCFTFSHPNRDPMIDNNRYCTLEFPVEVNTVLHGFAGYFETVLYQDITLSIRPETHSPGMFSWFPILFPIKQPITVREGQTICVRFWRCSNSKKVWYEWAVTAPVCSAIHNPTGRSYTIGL
UniProt P62318: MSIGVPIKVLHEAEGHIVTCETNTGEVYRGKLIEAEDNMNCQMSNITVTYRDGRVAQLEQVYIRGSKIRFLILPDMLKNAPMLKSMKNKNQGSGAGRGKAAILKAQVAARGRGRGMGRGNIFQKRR
UniProt Q9BQA1: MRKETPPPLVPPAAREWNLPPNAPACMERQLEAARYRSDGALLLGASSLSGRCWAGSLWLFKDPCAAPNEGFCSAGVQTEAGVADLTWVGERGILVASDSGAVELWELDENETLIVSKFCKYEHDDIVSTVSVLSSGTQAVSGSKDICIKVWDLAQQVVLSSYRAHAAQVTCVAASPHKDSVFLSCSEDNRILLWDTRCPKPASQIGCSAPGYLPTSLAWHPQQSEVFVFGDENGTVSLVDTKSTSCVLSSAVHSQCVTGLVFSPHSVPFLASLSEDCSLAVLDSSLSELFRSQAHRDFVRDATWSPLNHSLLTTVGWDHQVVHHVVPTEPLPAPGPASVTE

[2] = biological target: GFP-pICln S193, 195, 197D (human) (UniProt P54105); assay: co-IP; GFP tagged pICln wild type and phosphomutants; details in SD Figure 3A (not shown)
[3] = biological target: GFP-pICln wild type (human) (UniProt P54105); assay: as above
[4] = biological target: GFP-pICln S193, 195, 197A (human) (UniProt P54105); assay: as above
[5] = biological target: GST-pICln wild type (human) (UniProt P54105); assay: pull-down; GST-pICln (wt, phosphomutants or pre-phosphorylated by ULK1) on glutathione sepharose 4B with single in vitro translated 35S-labelled Sm proteins; 300 mM NaCl, 50 mM Tris/HCl pH 7.5, 1 mM EGTA, 1 mM EDTA, 1 mM DTT, 0.01% Igepal; 1.5 h at 4°C, two washes, autoradiography; only the target purified
[6] = biological target: GST-pICln S193, 195, 197A (phospho-inactivating alanine mutant) (human) (UniProt P54105); assay: as above
[7] = biological target: GST-pICln S193, 195, 197D (phospho-mimicking aspartate mutant) (human) (UniProt P54105); assay: as above
[8] = biological target: T2, ULK1, endogenous (human (endogenous in HEK293T)) (UniProt O75385); assay: co-IP; endogenous ULK1 immunoprecipitated (protein-G-sepharose coated with 1 μg ULK1 antibody, 4°C overnight) from Superdex 200 increase fractions of HEK293T S100 extract; blot for pICln
T2 sequence: T1 sequence

Substance: SMN (survival motor neuron protein), endogenous (from UniProt Q16637 1-294)
binding [2]: binds
binding [3]: binds
binding [4]: binds

Substance: chloride conductance regulatory protein (pICln), endogenous (from UniProt P54105 1-237)
binding [1]: binds
binding [8]: binds

Continued, values first:

binding [1]: binds
Substance: Protein arginine N-methyltransferase 5 (PRMT5), endogenous (from UniProt O14744 1-637) (enzyme)

binding [5]: binds
binding [6]: binds
binding [7]: binds
Substance: SmD3, in vitro translated (from UniProt P62318 1-126)

binding [1]: binds
Substance: methylosome protein 50 (MEP50/WD45), endogenous (from UniProt Q9BQA1 1-342)

From PMC8216288
